In patent publication US20200299389A1:
No constants are given. Whether binding was seen depends on the method and setting. Some entries that bind do so weakly or less than the wild type.

Sequences of proteins named here, by UniProt entry; tags and fusion partners are left off. A change or cut given only in a name is not applied to a line headed by its entry.
UniProt Q9NZQ7: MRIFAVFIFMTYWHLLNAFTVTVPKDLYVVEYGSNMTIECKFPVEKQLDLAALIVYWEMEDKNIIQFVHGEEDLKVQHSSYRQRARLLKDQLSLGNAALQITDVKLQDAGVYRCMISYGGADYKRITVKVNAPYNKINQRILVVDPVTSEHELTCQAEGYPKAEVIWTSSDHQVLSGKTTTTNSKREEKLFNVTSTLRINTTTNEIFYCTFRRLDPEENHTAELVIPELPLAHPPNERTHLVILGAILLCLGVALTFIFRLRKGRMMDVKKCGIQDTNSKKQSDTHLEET

Molecular target: human PD-L1 IgG1 Fc chimera (human) (UniProt Q9NZQ7)
Assay: phage ELISA screening on PD-L1-Fc

binding: binds
B1: OM-PD-L1-32 (Fab, V domains shown)
VH: QVQLVQSGAKVKKPGSSVKVSCKASGGTFSSYAISWVRQAPGQGLEWMGRIIPILGIANYAQKFQGRVTITADKSTSTAYMELSSLRSEDTAVYYCARVVPGYSYGPFDYWGQGTTVTVSS
VL: QSALTQPASVSGSPGQSITISCTGTSNDVGSYNSVSWYQQHPGKAPKLVIYEVANRPSGVPDRFSGSKSGNTASLTISGLQAEDEADYYCSSYTSSSTLVFGGGTKLTVLG
